At least one structure is not confirmed: it was looked up by name or label, or the drawing left a doubt.
Columns and labels:
Experiment in all cases: Checkerboard dirithromycin and sodium bicarbonate, multi-drug resistant clinical isolate
Type in all cases: cell-based
Acinetobacter baumannii = system: Acinetobacter baumannii
Klebsiella pneumoniae = system: Klebsiella pneumoniae
Pseudomonas aeruginosa = system: Pseudomonas aeruginosa

Measured: effect of sodium bicarbonate on activity

CC[C@H]1OC(=O)[C@H](C)[C@@H](O[C@H]2C[C@@](C)(OC)[C@@H](O)[C@H](C)O2)[C@H](C)[C@@H](O[C@@H]2O[C@H](C)C[C@H](N(C)C)[C@H]2O)[C@](C)(O)C[C@@H](C)[C@@H]2N[C@@H](COCCOC)O[C@H]([C@H]2C)[C@]1(C)O [Dirithromycin]
potentiator: all assays above

Reference: patent US11400106B2, “Methods for inhibiting microbe growth” (priority 2018, dated 2022)
